PubChem BioAssay AID1159584 | Peter MacCallum Cancer Centre | 2016
Shown is a random part of about 18,000 reagents tested. Not stated in the record: the amount of reagent, the time to read-out.

Aim: 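Genes whose loss is lethal only together with E-cadherin loss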 (primary screen)
System: human MCF10A breast epithelial cells, parental and CDH1-null
Reagent: siRNA against human genes
Measured: 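ATP luminescence (CellTiter-Glo) viability per line relative to mean mock wells over all plates, and the ratio of CDH1-null to parental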
Direction: CDH1-null / parental viability ratio: higher = CDH1-null cells survive relatively better than parental; CDH1-null viability vs mock: higher = more viable CDH1-null cells; parental viability vs mock: higher = more viable parental cells

target	CDH1-null / parental viability ratio	CDH1-null viability vs mock (fraction of mock)	parental viability vs mock (fraction of mock)
GALNT18 (GeneID 374378)	1.2	1	0.83
PDCD6 (GeneID 10016)	0.89	0.9	1.01
PTGIS (GeneID 5740)	0.74	0.4	0.54
LCORL (GeneID 254251)	0.99	0.9	0.91
ATP6V1E1 (GeneID 529)	0.92	0.79	0.86
SCN11A (GeneID 11280)	1.17	1.05	0.9
TELO2 (GeneID 9894)	0.76	0.53	0.7
DSC1 (GeneID 1823)	1.12	1.25	1.12
CCNL1 (GeneID 57018)	1.19	0.81	0.68
GM2A (GeneID 2760)	1.02	0.98	0.96
SAPCD1 (GeneID 401251)	1.19	0.74	0.62
TLX2 (GeneID 3196)	0.96	0.8	0.83
PRKCQ (GeneID 5588)	0.79	0.73	0.92
VPS37A (GeneID 137492)	0.84	0.82	0.98
TRAF5 (GeneID 7188)	0.83	0.68	0.82
LRRC8E (GeneID 80131)	0.84	0.69	0.82
LYPLA1 (GeneID 10434)	1.03	0.99	0.96
RAPH1 (GeneID 65059)	1.06	0.74	0.7
NPPB (GeneID 4879)	1.02	0.94	0.92
RABL6 (GeneID 55684)	0.86	0.55	0.64
XRCC2 (GeneID 7516)	1.35	0.97	0.72
STAC2 (GeneID 342667)	1.09	0.72	0.66
ENOPH1 (GeneID 58478)	1.05	1.01	0.96
FAHD1 (GeneID 81889)	0.87	0.75	0.86
RSPO3 (GeneID 84870)	0.86	0.55	0.64
C4A (GeneID 720)	1.31	0.51	0.39
LDLR (GeneID 3949)	0.98	0.9	0.92
GUCD1 (GeneID 83606)	0.79	0.38	0.48
NUP133 (GeneID 55746)	1.05	0.6	0.57
KDM3A (GeneID 55818)	0.86	0.65	0.76
LGR4 (GeneID 55366)	0.91	0.78	0.86
SBSN (GeneID 374897)	0.96	0.88	0.92
USP32 (GeneID 84669)	1.12	0.64	0.57
GJA3 (GeneID 2700)	1.35	0.62	0.46
MUC17 (GeneID 140453)	0.96	0.67	0.7
PTEN (GeneID 5728)	1.15	0.76	0.66
HADH (GeneID 3033)	0.77	0.68	0.88
LYPD1 (GeneID 116372)	1.4	0.56	0.4
CSMD1 (GeneID 64478)	0.61	0.46	0.75
FTMT (GeneID 94033)	1.76	0.95	0.54
RIMBP2 (GeneID 23504)	0.91	0.85	0.93
SELENOI (GeneID 85465)	1.11	0.92	0.83
SGSH (GeneID 6448)	1.06	0.56	0.53
RORC (GeneID 6097)	1.05	1.08	1.03
SLC17A5 (GeneID 26503)	0.98	0.96	0.98
RAB6A (GeneID 5870)	1.1	1.03	0.94
GGCX (GeneID 2677)	1	0.97	0.97
CRNKL1 (GeneID 51340)	0.72	0.29	0.4
RNLS (GeneID 55328)	1.03	0.8	0.78
ALKAL1 (GeneID 389658)	1.14	1.12	0.98
EVL (GeneID 51466)	1.05	0.58	0.55
PRX (GeneID 57716)	1.22	0.99	0.81
LIFR (GeneID 3977)	0.9	0.94	1.04
HBQ1 (GeneID 3049)	1.34	0.94	0.7
SLC10A5 (GeneID 347051)	0.88	0.72	0.82
TEX19 (GeneID 400629)	1.25	0.5	0.4
LINC02875 (GeneID 388407)	0.94	0.83	0.88
SH3BGRL3 (GeneID 83442)	0.87	0.45	0.52
DUX4L1 (GeneID 22947)	1.44	1.24	0.86
HIPK1 (GeneID 204851)	0.97	0.97	1
FARP2 (GeneID 9855)	0.87	0.6	0.69
POLA2 (GeneID 23649)	0.97	0.62	0.64
POLE2 (GeneID 5427)	0.88	0.88	1
RHBDF1 (GeneID 64285)	0.8	0.67	0.84
TTC7A (GeneID 57217)	1.07	0.6	0.56
KLRG2 (GeneID 346689)	1.43	0.6	0.42
PINK1 (GeneID 65018)	1.34	0.95	0.71
GLRA3 (GeneID 8001)	1.15	0.92	0.8
NOL12 (GeneID 79159)	0.82	0.51	0.62
QSER1 (GeneID 79832)	1.02	0.95	0.93
G2E3 (GeneID 55632)	0.78	0.65	0.83
FAM53A (GeneID 152877)	0.69	0.61	0.88
ZNF174 (GeneID 7727)	1.16	0.64	0.55
STAG3L1 (GeneID 54441)	0.84	0.68	0.81
DNTTIP2 (GeneID 30836)	1.1	0.65	0.59
SPRING1 (GeneID 79794)	0.96	0.8	0.83
ICA1L (GeneID 130026)	1.25	0.8	0.64
ANKRD36 (GeneID 375248)	1.04	1.1	1.06
CRY2 (GeneID 1408)	0.9	0.9	1
DSCR10 (GeneID 259234)	1.04	0.78	0.75
HDAC7 (GeneID 51564)	0.89	0.72	0.81
CPXM2 (GeneID 119587)	1	0.84	0.84
H2AB1 (GeneID 474382)	0.7	0.56	0.8
SPRR2B (GeneID 6701)	0.99	0.76	0.77
NDUFAF3 (GeneID 25915)	1.18	0.66	0.56
MYO19 (GeneID 80179)	0.88	0.84	0.96
LINGO2 (GeneID 158038)	0.85	0.46	0.54

Copied from the list.
Under “parental viability vs mock (fraction of mock)”, LINGO2 (GeneID 158038) shows 0.54
Value of SBSN (GeneID 374897) in “CDH1-null viability vs mock (fraction of mock)”: 0.88
Result for ANKRD36 (GeneID 375248) in “CDH1-null viability vs mock (fraction of mock)”: 1.1
For “CDH1-null / parental viability ratio”, NDUFAF3 (GeneID 25915) has 1.18
ATP6V1E1 (GeneID 529), parental viability vs mock (fraction of mock): 0.86
QSER1 (GeneID 79832), CDH1-null viability vs mock (fraction of mock) = 0.95
